Assay results from US20220380444A1.

Tests used:
[1] = biological target: rat C7 protein (rat); experiment: direct ELISA, C7 coated on plate
[2] = biological target: cynomolgus monkey C7 protein (cynomolgus monkey); experiment: direct ELISA, C7 coated on plate
[3] = biological target: rat C7 protein (rat); experiment: western blot, non-reduced rat serum
[4] = biological target: cynomolgus monkey C7 protein (cynomolgus monkey); experiment: western blot, non-reduced monkey serum
[5] = biological target: rat C7 protein (rat); experiment: SPR (Biacore)
[6] = biological target: rat C7 protein (rat); experiment: western blot
[7] = biological target: cynomolgus monkey C7 protein (cynomolgus monkey); experiment: western blot
[8] = biological target: rat C7 protein (rat); experiment: direct ELISA, rat C7 on the well, antibody titrated
[9] = biological target: rat C7 protein (rat); experiment: direct ELISA and sandwich ELISA
[10] = biological target: rat C7 protein (rat); experiment: sandwich ELISA, 2H2 coated as capture, rat C7 titrated, goat anti-C7 as detection
[11] = biological target: rat C7 protein (rat); experiment: western blot of serum, non-reducing conditions (no detection under reducing conditions)
[12] = biological target: rat C7 protein (rat); experiment: sandwich ELISA, 2H2 coated as capture, rat C7 titrated, polyclonal anti-C7 as detection
[13] = biological target: rat C7 protein (rat); experiment: western blot of rat serum, non-reduced and reduced
[14] = biological target: cynomolgus monkey C7 protein (cynomolgus monkey); experiment: direct ELISA, cynomolgus C7 immobilised on the well ('C7 Cyno Capture'), antibody titrated

binding [1]: binds | binding [2]: binds | binding [3]: binds | binding [4]: binds | binding [5]: binds | binding [6]: binds | binding [7]: binds | binding [8]: binds
B1: monoclonal anti-C7 antibody 73D1 (antibody, IgG2a, V domains shown)
VH: EVQLQQSGPELVKPGASVKMSCKASGYTFTDYNMHWVKQSHGKSLEWIGYINPNNGGPSYNQNFKGKATLTVNKSSSTAYMELRSLTSEDSAVYYCACGNYPDYWGQGTTLTVSS
VL: DIQMTQSPASLSASVGETVTITCRASGNIHNYLAWYQQKQGKSPQLLVYNAKTLADGVPSRFSGSGSGTQYSLKINSLQPEDFGSYYCQHFWSTPLTFGAGTKLELK

binding [1]: binds | binding [2]: binds | binding [3]: binds | binding [9]: binds | binding [10]: binds | binding [11]: binds | binding [4]: binds | binding [6]: binds | binding [7]: binds | binding [12]: binds | binding [13]: binds | binding [8]: binds
B2: monoclonal anti-C7 antibody 2H2 (antibody, IgG2b, V domains shown)
VH: QVQLQQPGAELMKPGASVKLSCKASGYIFTSYWMHWVKQRPGRGLEWIGRIDPNSGGTNYNEKFKSKATLTVDKPSSTVYMKISSLTSEDSAVYYCAREHDYDYAMDYWGQGTSVTVSS
VL: DIVMTQAAPSVPVTPGESVSISCRSSKSLLHSNGNTYLYWFLQRPGQSPQLLIYRMSNLASGVPDRFSGSGSGTAFTLRISRVEAEDVGVYYCMQHLEYPFTFGSGTKLEIK

binding [2]: binds | binding [14]: binds | binding [8]: no binding (tested: 10 µg/ml)
B3: monoclonal anti-C7 antibody 17E7 (antibody, IgG2a, V domains shown)
VH: EVQLQQSGTVLARPGASVKMSCKTSGYSFTTYWMHWVKQRPGQGLEWIGAIYPGNSDTYYSQKFKDKAKLTAVTSASTAYMELSSLTNEDSAVYYCTRSGGYDVGGLDYWGQGTTLTVSS
VL: DIVMTQSPATLSVTPGDGVSLSCRASQSISDYLHWYQQKSHESPRLLIKFASQSISGIPSRFSGSGSGSDFTLSINSVEPEDVGMYYCQNGHSFPFTFGSGTKLELK

These are yes or no findings as the source states them, for the method shown. A result given as binding can be weak or reduced; the word gives no strength. One block for each binder: values may come before it.
